Laboratory results: the supplement of paper PMC10689618
This is one part of the list. Many values rest on one well or one pass, so single values are uncertain.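 Primary human fetal astrocytes engulfed labelled rat cortical synaptosomes, measured as a red/green ratio corrected for calcein live-cell signal and scaled to the plate median. Toxicity meant calcein falling over 30%; decreased phagocytosis meant below 70% of median above 5 µM.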

Tests used:
Human fetal astrocytes [1] = experiment: loss of total cells relative to no-compound high-control median (toxicity); higher = more toxic (fewer cells); settings: 24 h
Human fetal astrocytes [2] = experiment: synaptosome phagocytosis (pHrodo/calcein intensity ratio) relative to plate median of data wells; higher = more phagocytosis; settings: 24 h

Row | SMILES | loss of total cells (Human fetal astrocytes [1]; 1.39 µM) [%] | loss of total cells (Human fetal astrocytes [1]; 2.78 µM) [%] | loss of total cells (Human fetal astrocytes [1]; 5.56 µM) [%] | loss of total cells (Human fetal astrocytes [1]; 11.11 µM) [%] | loss of total cells (Human fetal astrocytes [1]; 22.22 µM) [%] | synaptosome phagocytosis (Human fetal astrocytes [2]; 1.39 µM) [%] | synaptosome phagocytosis (Human fetal astrocytes [2]; 2.78 µM) [%] | synaptosome phagocytosis (Human fetal astrocytes [2]; 5.56 µM) [%] | synaptosome phagocytosis (Human fetal astrocytes [2]; 11.11 µM) [%] | synaptosome phagocytosis (Human fetal astrocytes [2]; 22.22 µM) [%]
1 | COc1cc(OC)c2c(c1Cl)O[C@@]1(C(=O)CC(=O)C[C@H]1C)C2=O | -6.9 | 4.7 | -12.2 | -9.7 | -16.7 | 113 | 106 | 110 | 87.4 | 112
2 | OCCc1ccccc1 | 0.8 | -17.4 | 2.7 | -3.1 | 15.9 | 96.3 | 126 | 108 | 98.6 | 114
3 | CC(C(=O)O)c1ccc(-c2ccccc2)c(F)c1 (stereo not given) | -3.9 | -3.1 | -7 | -5.5 | 37.4 | 106 | 81.4 | 98.6 | 128 | 116
4 | C[C@]12CCC(=O)C=C1CC[C@@H]1[C@@H]2[C@@H](O)C[C@@]2(C)[C@H]1CC[C@]2(O)C(=O)COC(=O)CCC(=O)O | 0.9 | -29.5 | -6.3 | -7.8 | 5.8 | 131 | 122 | 128 | 101 | 118
5 | CN1CCc2cccc3c2[C@H]1Cc1ccc(O)c(O)c1-3 | -3.3 | 12.5 | 17.1 | 34.4 | 51.6 | 71.4 | 82 | 65.8 | 19.8 | 2
6 | CC(C)(C)NCC(O)c1ccc(O)c(CO)c1 (stereo not given) [Salbutamol] | 3.9 | -25.4 | -7.7 | -8.9 | 9.4 | 114 | 112 | 112 | 97.3 | 102
7 | COC(=O)[C@H]1[C@H]2C[C@H]3c4[nH]c5ccccc5c4CCN3C[C@@H]2CC[C@@H]1O | -27 | -2.5 | -10.3 | 7.4 | 8.9 | 58.8 | 97.7 | 86.5 | 73.3 | 110
8 | OC[C@H]1O[C@H](OCC2O[C@@H](O)[C@H](O)[C@@H](O)[C@@H]2O)[C@H](O)[C@@H](O)[C@H]1O (stereo not given in full) | -1.1 | -8.3 | 3.6 | 0.4 | -10.6 | 110 | 68.6 | 86.3 | 97.6 | 46.1
9 | C=CCSCC1Nc2cc(Cl)c(S(N)(=O)=O)cc2S(=O)(=O)N1 (stereo not given) | 15.7 | -25.4 | -6.3 | 8.9 | -22.2 | 107 | 142 | 97.8 | 117 | 96.8
10 | CN1CCc2c(c3ccccc3n2Cc2ccccc2)C1 | 5.4 | 14.8 | 2.9 | -11.3 | -7.6 | 90.2 | 90.6 | 19.6 | 64.4 | 30.8
11 | CNc1ccccc1C(=O)N1CCc2c([nH]c3ccccc23)C1=O | -26.2 | -6.1 | -4.4 | -2 | 0 | 87.2 | 54.7 | 98.8 | 51.2 | 53.9
12 | CC(C)/N=c1\cc2n(-c3ccc(Cl)cc3)c3ccccc3nc-2cc1Nc1ccc(Cl)cc1 | -14.1 | -12 | -19.1 | -25.2 | 7 | 83.3 | 75.1 | 60.2 | 56.4 | 51.2
13 | Cc1c2oc3c(C)ccc(C(=O)N[C@@H]4C(=O)N[C@H](C(C)C)C(=O)N5CCC[C@H]5C(=O)N(C)CC(=O)N(C)[C@@H](C(C)C)C(=O)O[C@@H]4C)c3nc-2c(C(=O)N[C@@H]2C(=O)N[C@H](C(C)C)C(=O)N3CCC[C@H]3C(=O)N(C)CC(=O)N(C)[C@@H](C(C)C)C(=O)O[C@@H]2C)c(N)c1=O [actinomycin D] | -0.8 | 7 | 14.1 | -1.6 | 10.2 | 53.9 | 87.2 | 67.2 | 96.5 | 59.1
14 | CO/N=C(\C(=O)N[C@@H]1C(=O)N2C(C(=O)O)=C(CSc3nc(=O)c(O)nn3C)CS[C@H]12)c1csc(N)n1 | -33.1 | -34.9 | 11.8 | 11.5 | 18.4 | 84.4 | 104 | 136 | 100 | 128
15 | CC(=O)OC1CCC2(C)C(=CCC3C2CCC2(C)C(C(C)CCCC(C)C)CCC32)C1 (stereo not given) | -16.3 | 9.3 | 21.4 | -1.3 | -23.3 | 87.7 | 116 | 134 | 76.8 | 112
16 | CC(C)(CO)C(O)C(=O)NCCCO (stereo not given) | -21 | -18.3 | -8.1 | 36.4 | -5.9 | 101 | 111 | 106 | 123 | 103
17 | CO/N=C(\C(=O)N[C@@H]1C(=O)N2C(C(=O)O)=C(COC(N)=O)CS[C@H]12)c1ccco1 | 18.3 | -11.9 | 5.7 | 2.3 | 18.1 | 78.7 | 121 | 123 | 116 | 109
18 | CC(=O)O[C@]1(C(C)=O)CC[C@H]2[C@@H]3C=C(Cl)C4=CC(=O)CC[C@]4(C)[C@H]3CC[C@@]21C | -47.6 | 27 | -9.9 | 43 | 1.6 | 106 | 153 | 112 | 177 | 98.8
19 | COc1cc(OC)c(-c2c(OC)cc(OC)cc2OC)c(OC)c1 | -31.1 | -5.4 | -4.4 | 3.4 | 1.5 | 83.5 | 120 | 77.7 | 88.4 | 104
20 | O=c1c(-c2ccc(O)cc2)coc2c([C@@H]3O[C@H](CO)[C@@H](O)[C@H](O)[C@H]3O)c(O)ccc12 | -18.9 | 8.3 | -14.7 | 15.5 | 13.3 | 116 | 107 | 127 | 127 | 108

As entered above:
In synaptosome phagocytosis (Human fetal astrocytes [2]; 5.56 µM) [%], O=c1c(-c2ccc(O)cc2)coc2c([C@@H]3O[C@H](CO)[C@@H](O)[C@H](O)[C@H]3O)c(O)ccc12 has the entry 127
In synaptosome phagocytosis (Human fetal astrocytes [2]; 1.39 µM) [%], CO/N=C(\C(=O)N[C@@H]1C(=O)N2C(C(=O)O)=C(COC(N)=O)CS[C@H]12)c1ccco1 has the entry 78.7
